Structures can show the parent of a compound that is named as a salt. The list shows a part of the results. Repeats in this data set agree poorly, so a single value says little.
Tested on: MDA-MB-468
Assay: phospho-S6 immunofluorescence (DAPI-normalised), per-plate z-score; higher = higher phospho-S6 signal (less pathway suppression)
Settings: 24 h
Method: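 GPCR-targeted compound library (MedChemExpress HY-L006) tested on MDA-MB-468 PTEN-null TNBC cells in 384-well plates at 0.1, 1 or 10 uM, combined with vehicle, GDC0941 450 nM or lapatinib 1 uM, for 24 h. Phospho-S6 (S240/244) immunofluorescence normalised to DAPI and expressed as a per-plate z-score; values are the mean of biological triplicates.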

[1] = compound 0.1 µM, co-treatment: GDC0941 450 nM
[2] = compound 0.1 µM, co-treatment: lapatinib 1 uM
[3] = compound 0.1 µM, co-treatment: vehicle
[4] = compound 1 µM, co-treatment: GDC0941 450 nM
[5] = compound 1 µM, co-treatment: lapatinib 1 uM
[6] = compound 1 µM, co-treatment: vehicle
[7] = compound 10 µM, co-treatment: GDC0941 450 nM
[8] = compound 10 µM, co-treatment: lapatinib 1 uM
[9] = compound 10 µM, co-treatment: vehicle

Compound | phospho-S6 immunofluorescence (z-score) [1] | phospho-S6 immunofluorescence (z-score) [2] | phospho-S6 immunofluorescence (z-score) [3] | phospho-S6 immunofluorescence (z-score) [4] | phospho-S6 immunofluorescence (z-score) [5] | phospho-S6 immunofluorescence (z-score) [6] | phospho-S6 immunofluorescence (z-score) [7] | phospho-S6 immunofluorescence (z-score) [8] | phospho-S6 immunofluorescence (z-score) [9]
Cc1cccc(C(C)c2c[nH]cn2)c1C (centres undefined) [Medetomidine (hydrochloride)] | -0.2 | 0.17 | 1.23 | -0.54 | -0.64 | 0.35 |  |  | 
O=C1CCC[C@@H]2[C@H]3CCCN4CCC[C@@H](CN12)[C@@H]34 [Matrine] | 0.53 | -0.03 | -0.04 | 0.07 | 0.19 | 0.01 | -0.52 | -0.53 | -0.24
O=Cc1cn(Cc2ccc(Cl)cc2)c2ccccc12 [Oncrasin-1] | -2.31 | -2.02 | -5.54 | -2.65 | -11.2 | -12.5 |  |  | 
CCN(CCCCO)C(C)Cc1ccc(O)cc1 (centres undefined) [O-desmethyl Mebeverine alcohol (hydrochloride)] | 0.27 | -0.08 | -0.25 | -0.28 | -0.18 | -0.34 | -0.73 | -0.03 | -0.64
CN1[C@@H]2C[C@@H](OC(=O)[C@H](CO)c3ccccc3)C[C@H]1[C@@H]1O[C@@H]12 [Scopolamine (hydrobromide)] | -1.08 | 0.44 | -0.41 | -0.69 | -0.65 | -0.22 |  |  | 
CNCC(=O)c1ccc(O)c(O)c1 [Adrenalone (hydrochloride)] | 0.29 | -0.35 | -0.04 | -0.45 | -0.22 | -0.27 |  |  | 
NCCc1cc(O)c(O)cc1O [Oxidopamine (hydrobromide)] | -1.04 | -1.54 | -0.51 | -0.95 | 0.5 | -0.1 | 0.33 | 2.77 | 2.94
NCC(O)c1ccc(O)cc1 (centres undefined) [Octopamine (hydrochloride)] | 0.13 | 0.11 | 1.43 | -0.95 | 0.18 | 0.96 | 0.26 | 0.86 | 1.09
C[N@+]1(CC2CC2)CC[C@]23c4c5ccc(O)c4O[C@H]2C(=O)CC[C@@]3(O)[C@H]1C5 [Methylnaltrexone (Bromide)] | -0.74 | -0.38 | -1.12 | -0.46 | -0.7 | -1.11 | 0.46 | 0.44 | -0.66
Cc1ccc2c(c1)[C@]13CCCC[C@@H]1[C@H](C2)N(C)CC3 [Dimemorfan (phosphate)] | -0.77 | -1.05 | -0.38 | -0.83 | -0.03 | -0.39 | 0.3 | 0.09 | 0.76
Cc1ncc(CN2CC=C(c3ccccc3)CC2)c(N)n1 [Ro 10-5824 (dihydrochloride)] | -0.27 | 0.97 | 0.02 | 0.33 | -0.53 | 0.46 |  |  | 
Cc1cccc([C@H](C)c2c[nH]cn2)c1C [Dexmedetomidine (hydrochloride)] | 0.67 | 0.96 | 1.08 | 0.15 | 0.07 | 1.37 |  |  | 
Cc1ccc2c(c1)C1(CCN(CCc3nc(-c4ccccc4)oc3C)CC1)OC(=O)N2 | 0.88 | 1.37 | 0.79 | 0.69 | 0.28 | 0.46 |  |  | 
CN1CCC2=C(C1)c1ccccc1Cc1ccccc12 [Setiptiline] | 0.79 | -0.04 | -0.22 | 0.13 | -0.52 | 0.16 | -0.28 | -1.52 | -0.24
Oc1ccc2c3c1O[C@H]1c4[nH]c5ccccc5c4C[C@@]4(O)[C@@H](C2)N(CC2CC2)CC[C@]314 [Naltrindole (hydrochloride)] | 0.1 | -0.21 | -1.78 | 0.4 | -0.82 | -1.22 |  |  | 
Cc1cccc(Cc2c[nH]cn2)c1C [Detomidine (hydrochloride)] | -0.14 | 0.63 | -0.57 | -0.56 | -0.12 | -1.53 |  |  | 
CN1[C@@H]2CC[C@H]1C[C@@H](OC(=O)[C@H](CO)c1ccccc1)C2 [L-Hyoscyamine] | 0.63 | -0.01 | 0.31 | 0.69 | 0.51 | 1.57 |  |  | 
O=C(O[C@H]1C[C@H]2CC[C@@H](C1)[N+]21CCCC1)C(O)(c1ccccc1)c1ccccc1 [Trospium (chloride)] | -0.07 | -0.25 | -1.08 | -1.5 | -0.28 | -2.21 | -0.76 | 0.26 | -1.07
CCC1(c2cccc(O)c2)CCCCN(C)C1 (centres undefined) [Meptazinol (hydrochloride)] | -0.49 | -0.54 | -0.64 | 0.55 | -0.03 | 0.4 |  |  | 
CN(C)C(=O)Oc1cc(OC(=O)N(C)C)cc(C(O)CNC(C)(C)C)c1 (centres undefined) [Bambuterol (hydrochloride)] | -0.62 | -1.13 | -0.26 | -0.71 | -1.48 | -0.62 | -0.5 | 0.49 | -0.4
O=C1Nc2ccccc2C2(CCN(CCc3ccc(C(F)(F)F)cc3)CC2)O1 | 0.88 | 1.02 | -0.13 | 0.65 | -0.99 | 0.7 |  |  | 
CN(C)CCN(C)CCc1ccc(Cl)c(Cl)c1 [BD-1047 (dihydrobromide)] | 0.08 | 0.57 | -1.08 | -1.06 | 0.68 | -0.26 | 0.39 | -1.41 | -0.85
CN1[C@@H]2CC(O)C[C@H]1[C@@H]1O[C@@H]12 (some centres undefined) [Scopine (hydrochloride)] | 0.8 | -0.38 | -1.21 | 0.29 | 0.76 | -0.32 |  |  | 
CCCC(C)(C)c1ccc2c(c1)OC(C)(C)[C@@H]1CC=C(C)C[C@@H]21 | -0.31 | -0.71 | 0.03 | -0.01 | 1.56 | 0.26 |  |  | 
COc1ccc2c(c1)[nH]c1c(C)nccc12 [Harmine] | 0.34 | -0.78 | -0.35 | 0.44 | -1.56 | -0.14 | -0.75 | -1.57 | -1.55

Compound | phospho-S6 immunofluorescence (z-score) [1] | phospho-S6 immunofluorescence (z-score) [2] | phospho-S6 immunofluorescence (z-score) [3] | phospho-S6 immunofluorescence (z-score) [4] | phospho-S6 immunofluorescence (z-score) [5] | phospho-S6 immunofluorescence (z-score) [6] | phospho-S6 immunofluorescence (z-score) [7] | phospho-S6 immunofluorescence (z-score) [8] | phospho-S6 immunofluorescence (z-score) [9]
C[N+]1(C)CCCC(OC(=O)C(O)(c2ccccc2)c2ccccc2)C1 (centres undefined) [Mepenzolate (Bromide)] | 1.26 | 1.15 | 1.33 | 1.01 | -0.61 | -1 | -0.25 | -0.12 | -0.02
C=CCN1C[C@H](C(=O)N(CCCN(C)C)C(=O)NCC)C[C@@H]2c3cccc4[nH]cc(c34)C[C@H]21 [Cabergoline] | 0.33 | 0.08 | -0.8 | 0.65 | -0.77 | -0.28 | 0.82 | -0.33 | -0.33
C[C@H]1CNCCc2ccc(Cl)cc21 [Lorcaserin (Hydrochloride)] | 0.17 | -0.45 | -0.09 | 0.12 | 0.44 | -0.53 | -1 | -0.25 | -0.95
COC(=O)C1=CCCN(C)C1 [Arecoline (hydrobromide)] | 1.07 | 0.75 | 0.13 | 1.23 | -0.42 | 0.28 | 0.22 | 0.44 | 0.56
CNC(C)Cc1ccccc1OC (centres undefined) [Methoxyphenamine (Hydrochloride)] | 0.36 | 0.58 | 1.68 | 1.32 | 0.42 | 1.17 | 0.57 | -0.2 | 0.23
Cc1cccc(C)c1NC1=NCCCS1 [Xylazine (hydrochloride)] | -0.07 | 0.7 | 0.46 | 0.58 | 0.29 | 1.86 | 0.73 | 0.79 | 0.89
CC(C)(C)NCC(O)c1cc(Cl)c(N)c(Cl)c1 (centres undefined) [Clenbuterol (hydrochloride)] | 0.54 | 0.77 | 0.78 | -0.03 | 2.34 | 0.8 | 1.42 | 1.64 | 0.37
CN1[C@@H]2CC[C@H]1C[C@@H](OC(=O)C(CO)c1ccccc1)C2 (some centres undefined) [Atropine (sulfate monohydrate)] | -2.19 | -0.96 | -1.91 | -1.09 | 0.21 | -1.6 | -1.09 | -0.18 | -0.82
CC(C)(C)NCC(O)c1ccc(O)cc1Cl (centres undefined) | 0.51 | 1.28 | 0.66 | 0.73 | 1.8 | -0.05 | 0.77 | 0.7 | 0.14
N[C@]1(C(=O)O)CC[C@H](C(=O)O)C1 [trans-ACPD] | 0.63 | 0.81 | -0.39 | 0.01 | -0.53 | -1.65 | 0.3 | 0.1 | -0.68
O=C(O[C@H]1C[N+]2(CCCOc3ccccc3)CCC1CC2)C(O)(c1cccs1)c1cccs1 [Aclidinium (Bromide)] | -0.5 | -0.88 | -1.77 | 0.6 | 0.62 | -0.71 | 0.75 | 1.09 | -0.87
O=C1CC[C@@]2(O)[C@H]3Cc4ccc(O)c5c4[C@@]2(CCN3CC2CC2)[C@H]1O5 [Naltrexone (Hydrochloride)] | 1.55 | 1.73 | 0.75 | 1.72 | 1.44 | 0.32 | 0.88 | 0.25 | 1.41
COc1ccc(C(=O)c2c(C)n(CCN3CCOCC3)c3cc(I)ccc23)cc1 | 1.41 | 1.44 | 1.62 | 2.07 | 0.97 | 1.23 | -3.18 | -1.01 | -3.47
COc1ccc2c(c1OC)CN1CCc3cc4c(cc3C1C2)OCO4 (centres undefined) [Tetrahydroberberine] | 0.03 | -0.11 | -0.32 | 1.13 | -0.03 | -0.6 | -0.04 | -1.09 | -0.52
O=C(C[S+]([O-])C(c1ccccc1)c1ccccc1)NO (centres undefined) [Adrafinil] | 1.05 | -0.22 | -1 | -0.36 | 0 | -0.91 | -0.02 | 0.28 | -0.05
COc1ccc2c(c1)[C@]13CCCC[C@@H]1[C@H](C2)N(C)CC3 [Dextromethorphan (hydrobromide hydrate)] | 0.78 | 0.88 | 0.11 | 0.04 | -0.4 | -0.4 | -0.24 | -0.31 | 0.42
N#Cc1c(Oc2cccc(OS(=O)(=O)CCCC(F)(F)F)c2)cccc1C(F)(F)F | -0.97 | -0.45 | -1.2 | -1.22 | -0.19 | -0.27 | -3.05 | -2.85 | -5.42
COc1cc2c3c(c1OC)-c1ccccc1C[C@H]3N(C)CC2 [Nuciferine] | -0.64 | -0.78 | -0.26 | -0.52 | -0.54 | -0.76 | 0.21 | -0.74 | 0
CNCC(O)c1ccc(O)cc1 (centres undefined) [Synephrine (hydrochloride)] | -0.44 | -0.85 | 0.89 | 0.84 | -0.11 | -0.55 | 1.02 | 0.35 | 0.24
C[C@@H]1CN(Cc2ccc(F)cc2)CCN1C(=O)COc1ccc(Cl)cc1NC(N)=O | -3.63 | -1.28 | -0.87 | -5.49 | -7.94 | -5.66 | -3.5 | -6.96 | -8.26
CSCC[C@H](NC(=O)[C@H](Cc1ccccc1)NC(=O)CNC(=O)CNC(=O)[C@@H](N)Cc1ccc(O)cc1)C(=O)O | -0.32 | 0.59 | 0.61 | -0.17 | 0 | 1.54 | -0.41 | -0.12 | -0.05
CN1C[C@H](C(=O)N[C@]2(C)O[C@@]3(O)[C@@H]4CCCN4C(=O)[C@H](Cc4ccccc4)N3C2=O)C[C@@H]2c3cccc4[nH]cc(c34)C[C@H]21 [Dihydroergotamine (mesylate)] | 1.28 | 0.2 | 0.93 | 0.36 | 1.4 | 0.95 | 1.05 | 0 | 0.86
CO[C@]12C[C@@H](COC(=O)c3cncc(Br)c3)CN(C)[C@@H]1Cc1cn(C)c3cccc2c13 [Nicergoline] | 0.67 | 0.84 | -0.63 | -0.3 | -0.51 | 0.13 | 0.57 | -0.56 | -0.38
O=c1[nH]c2ccccc2n1CCCN1CCC(n2c(=O)[nH]c3cc(Cl)ccc32)CC1 [Domperidone] | -0.94 | 0.04 | 0.4 | -0.22 | -0.79 | -0.6 | 0.19 | 0.25 | 1.62

3 entries out of the list, sorted by molecular weight, rising.
Compound | phospho-S6 immunofluorescence (z-score) [1] | phospho-S6 immunofluorescence (z-score) [2] | phospho-S6 immunofluorescence (z-score) [3] | phospho-S6 immunofluorescence (z-score) [4] | phospho-S6 immunofluorescence (z-score) [5] | phospho-S6 immunofluorescence (z-score) [6] | phospho-S6 immunofluorescence (z-score) [7] | phospho-S6 immunofluorescence (z-score) [8] | phospho-S6 immunofluorescence (z-score) [9]
C[C@H]1CNCCc2ccc(Cl)cc21 [Lorcaserin (Hydrochloride)] | 0.17 | -0.45 | -0.09 | 0.12 | 0.44 | -0.53 | -1 | -0.25 | -0.95
COc1cc2c3c(c1OC)-c1ccccc1C[C@H]3N(C)CC2 [Nuciferine] | -0.64 | -0.78 | -0.26 | -0.52 | -0.54 | -0.76 | 0.21 | -0.74 | 0
O=C(O[C@H]1C[N+]2(CCCOc3ccccc3)CCC1CC2)C(O)(c1cccs1)c1cccs1 [Aclidinium (Bromide)] | -0.5 | -0.88 | -1.77 | 0.6 | 0.62 | -0.71 | 0.75 | 1.09 | -0.87

— the supplement of paper PMC7411640
